# Measured values published in PubChem BioAssay AID540256 (National Center for Advancing Translational Sciences (NCATS), 2011).
# Hit rate of the full screen: of about 300,000 compounds, about 3,700 (1.2%) were called active. The inconclusive results got no clear call from the source; some entries with a clear call stand among them for comparison. Calls follow the shape of the full dose curve; tested in HEK293 cells. A potency beside an inconclusive call is a rough fit, not a confirmed value.
# Assay: qHTS for Inhibitors of binding or entry into cells for Lassa Virus; also: nearly all actives have a fitted effect of over 50% in size
# Settings: Lassa virus pseudotype entry inhibition, cell reporter; series mostly up to 37.9 µM
# Potency is read from the fitted curve at half-maximal effect.
row,Structure (SMILES),Potency
1,CC(=O)Oc1ccc(-c2csc(Nc3ccc(S(N)(=O)=O)cc3)n2)cc1,"inconclusive: 20 µM [inhibitor, single point]"
2,O=C(c1ccccc1Oc1ccccc1)N1CCN(c2ccccc2)CC1,"inconclusive: 12.6 µM [inhibitor, single point]"
3,CCCOc1ccc(C2NC(=S)NC(C)=C2C(=O)c2ccccc2)cc1OC (centres undefined),inactive
4,Cc1cccc(/C=C2/S/C(=N/N=C3\CC4CCC3(C)C4(C)C)NC2=O)c1 (centres undefined),active: 14.1 µM
5,COc1ccccc1/C=C/C(=O)NCC(=O)N/N=C/c1ccc2c(c1)OCO2,"inconclusive: 35.5 µM [inhibitor, single point]"
6,CN(Cc1nc(C(c2ccccc2)c2ccccc2)no1)CC1COCCO1 (centres undefined),"inconclusive: 7.08 µM [inhibitor, partial curve, poor fit]"
7,O=C(Nc1ccccc1)Nc1ccc(Br)cc1F,"inconclusive: 35.5 µM [inhibitor, single point]"
8,O=C1[C@H]2[C@@H]3[C@@H](O)[C@H](O)CC(=NOCc4ccccc4)[C@@H]3CC[C@H]2C(=O)N1C1CCCCC1,inactive
9,O=C(Cc1ccccc1)N1CCN=C1SCc1ccc([N+](=O)[O-])cc1,inactive
10,COc1ccc(-c2cc(C(=O)Nc3cc(S(N)(=O)=O)ccc3C)c3ccccc3n2)cc1OC,"inconclusive: 35.5 µM [inhibitor, single point]"
11,COc1cccc(COc2ccc(N(C)S(=O)(=O)c3ccccc3)cc2)c1,"inconclusive: 12.6 µM [inhibitor, partial curve, poor fit]"
12,COc1ccc(-c2cc(C(=O)N/N=C/c3cccnc3)c3ccccc3n2)c(OC)c1,"inconclusive: 8.91 µM [inhibitor, partial curve, poor fit]"
13,CC(C)c1cc(C(N)=O)c(NC(=O)c2cccc(COc3ccc(Cl)cc3)c2)s1,"inconclusive: 7.08 µM [inhibitor, partial curve, poor fit]"
14,CCn1cc(S(=O)(=O)c2ccc(C)cc2C)c(=O)c2cc(F)c(N3CCCCC3)cc21,inactive
15,N#Cc1nc(COc2ccccc2F)oc1NCCCn1ccnc1,inactive
16,CN(C)S(=O)(=O)c1ccc(C(=O)N2CCN(S(=O)(=O)c3cccs3)CC2)cc1,inactive
17,CC(=O)Oc1cccc(N2C(=O)CC(Nc3ccc(N4CCOCC4)cc3)C2=O)c1 (centres undefined),"inconclusive: 8.91 µM [inhibitor, partial curve, poor fit]"
18,CSc1ncc(Cl)c(C(=O)N(Cc2ccc(C(C)C)cc2)C2CCS(=O)(=O)C2)n1 (centres undefined),"inconclusive: 10 µM [inhibitor, partial curve]"
19,O=C(CN1CCN(c2cccc(Cl)c2)CC1)NC1CCCc2ccccc21 (centres undefined),"inconclusive: 11.2 µM [inhibitor, partial curve, poor fit]"
20,N/C(Cc1ccc(Cl)cc1Cl)=N\OC(=O)Cc1cccs1,"inconclusive: 17.8 µM [activator, single point]"
21,CCCn1c2ccccc2c2nnc(SC(CC)C(=O)Nc3cc(C)on3)nc21 (centres undefined),"inconclusive: 35.5 µM [inhibitor, partial curve, poor fit]"
22,CCOCc1cnc(C)nc1NCC(=O)c1c(C)[nH]c2ccc(OC)cc12,inactive

# Arranged by length of the SMILES (low to high): three of the compounds above.
row,Structure (SMILES),Potency
17,CC(=O)Oc1cccc(N2C(=O)CC(Nc3ccc(N4CCOCC4)cc3)C2=O)c1 (centres undefined),"inconclusive: 8.91 µM [inhibitor, partial curve, poor fit]"
10,COc1ccc(-c2cc(C(=O)Nc3cc(S(N)(=O)=O)ccc3C)c3ccccc3n2)cc1OC,"inconclusive: 35.5 µM [inhibitor, single point]"
8,O=C1[C@H]2[C@@H]3[C@@H](O)[C@H](O)CC(=NOCc4ccccc4)[C@@H]3CC[C@H]2C(=O)N1C1CCCCC1,inactive

# Following part

row,Structure (SMILES),Potency
1,CCCCC1CCC(CCCC(C)CCC(=O)O)CC1 (centres undefined),inactive
2,O=C(/C=C\c1ccccc1)NCC(=O)N/N=C/c1ccc(O)cc1O,"inconclusive: 1.78 µM [inhibitor, partial curve, poor fit]"
3,COc1cccc(N2C(=O)CN(Cc3ccc(OC)c(OC)c3)C2=S)c1,inactive
4,COC(=O)CCSc1cc(NCCOC(C)=O)c([N+](=O)[O-])c2nonc12,inactive
5,O=C(COc1ccccc1)N1N=C(c2cccnc2)CC1(O)C(F)(F)F (centres undefined),"inconclusive: 25.9 µM [inhibitor, partial curve, poor fit]"
6,CC(C)(C)c1ccc(-n2ncc3c2CCCC3NC(=O)c2cnccn2)cc1 (centres undefined),"inconclusive: 0.891 µM [inhibitor, full curve, poor fit]"
7,CN(Cc1ccccc1)c1nc2c(c(=O)[nH]c(=O)n2C)n1Cc1ccccc1Cl,"inconclusive: 16.4 µM [inhibitor, partial curve, poor fit]"
8,O=C(c1ccc(Cn2c(=S)[nH]c3ccccc3c2=O)cc1)N1CCN(c2ccccn2)CC1,"inconclusive: 35.5 µM [inhibitor, single point]"
9,COc1ccc(C(=O)Nc2nc3n(n2)C(c2ccc(F)cc2)C=C(c2ccc(Cl)cc2)N3)cc1 (centres undefined),inactive
10,COc1ccc(C(=O)Nc2ccc3ccccc3c2)c(OC)c1,"inconclusive: 35.5 µM [inhibitor, single point]"
11,Cc1ccc(N(C(C)C(=O)Nc2ccc(S(=O)(=O)N3CCOCC3)cc2)S(C)(=O)=O)cc1 (centres undefined),"inconclusive: 10 µM [inhibitor, partial curve, poor fit]"
12,O=C(CSc1n[nH]c(-c2ccccc2)n1)c1ccc(O)c(O)c1,"inconclusive: 0.0651 µM [inhibitor, full curve, poor fit]"
13,CCc1nnc(SCc2nc(-c3ccccc3F)oc2C)c2cc3sccc3n12,inactive
14,O=c1cccc2n1Cc1cc3ccccc3nc1-2,"inconclusive: 2.59 µM [activator, full curve, poor fit]"
15,CCOc1ccccc1NC(=O)c1c(NCc2ccc(OC)c(OC)c2OC)sc2c1CCC(C)C2 (centres undefined),"inconclusive: 15.8 µM [activator, single point]"
16,Cc1cc(Cl)ccc1C(=O)C1CCCN(C2CCSCC2)C1 (centres undefined),"inconclusive: 35.5 µM [inhibitor, single point]"
17,COc1ccc(C2=NN(C(=O)CSc3nnc(-c4ccccc4F)o3)C(c3ccco3)C2)cc1 (centres undefined),"inconclusive: 35.5 µM [inhibitor, single point]"
18,CC1CN(c2ncnc3c2c(-c2ccccc2)cn3-c2ccc(F)cc2)CC(C)O1 (centres undefined),"inconclusive: 5.62 µM [inhibitor, partial curve, poor fit]"
19,Cc1ccc(S(=O)(=O)N2CCC(=O)N(C(COCc3ccc(C(F)(F)F)cc3)C(C)C)CC2)cc1 (centres undefined),active: 13 µM
20,Cc1ccc(C)c(Cn2c(=O)n(CCCC(=O)NCc3ccco3)c(=O)c3sccc32)c1,"inconclusive: 16.4 µM [inhibitor, partial curve, poor fit]"
21,Cc1ccc(Cl)cc1N1CCN(C(=O)c2c(C)oc3ncnc(N4CCOCC4)c23)CC1,"inconclusive: 1.58 µM [activator, partial curve, poor fit]"
22,Nc1nc(Nc2cccc(Cl)c2)nc(NCCO)c1[N+](=O)[O-],"inconclusive: 35.5 µM [inhibitor, single point]"

row,Structure (SMILES),Potency
1,O=C(NCc1ccco1)/C(=C\c1cccnc1)NC(=O)c1ccccc1F,inactive
2,CC1CCN(C(=O)COC(=O)C2CCN(S(=O)(=O)c3c(Cl)cccc3Cl)CC2)CC1,"inconclusive: 5.62 µM [inhibitor, single point]"
3,CC(C)CCn1nc(C(=O)Nc2nc3c(s2)CCCC3)c2ccccc2c1=O,"inconclusive: 8.91 µM [inhibitor, partial curve, poor fit]"
4,Cc1ccc(C(=O)Nc2nnc(SCc3cc(=O)c4c(C)ccc(C)c4[nH]3)s2)cc1,inactive
5,CCN=C(Nc1cccc(F)c1)SC1CC(=O)N(c2ccc(OC)cc2)C1=O (centres undefined),"inconclusive: 11.6 µM [inhibitor, partial curve]"
6,Cc1ccc(NC(=O)c2cccc(OCc3c(C)noc3C)c2)cc1S(=O)(=O)Nc1ccccc1Cl,"inconclusive: 14.6 µM [inhibitor, single point]"
7,CC1(C)CC(=O)c2c(O)cc(OCc3ccc([N+](=O)[O-])cc3)cc2O1,"inconclusive: 3.16 µM [activator, full curve, poor fit]"
8,CCOc1ccccc1NC(=O)c1ccc2c(c1)CCCN2S(C)(=O)=O,"inconclusive: 7.94 µM [activator, single point]"
9,CCc1ccc(C(C(=O)NCc2ccc(OC)cc2)N(CCOC)C(=O)Cc2cccs2)cc1 (centres undefined),"inconclusive: 9.2 µM [inhibitor, partial curve]"
10,Cc1cc2n(n1)CCCN2C(=O)Nc1ccccc1F,inactive
11,Cc1cc(C)c(-n2c(SCCS(=O)(=O)c3ccc(F)cc3)n[nH]c2=O)c(C)c1,"inconclusive: 35.5 µM [inhibitor, single point]"
12,Cn1c(=NC(=O)c2ccc(F)cc2)sc2cc(Br)ccc21,"inconclusive: 12.6 µM [activator, partial curve, poor fit]"
13,CCC(=O)NCCc1nc2cc(NC(=O)COc3ccccc3)ccc2n1C,inactive
14,CCCCN(CCCC)CC(O)COc1ccccc1C(=O)Nc1ccccc1 (centres undefined),"inconclusive: 35.5 µM [inhibitor, single point]"
15,CC(C)Sc1nc2ccc(N3C(=O)C4CCCCC4C3=O)cc2s1 (centres undefined),inactive
16,CN(C)S(=O)(=O)N1CCC(CO)(Cc2cccc(C(F)(F)F)c2)CC1,"inconclusive: 11.2 µM [inhibitor, partial curve, poor fit]"
17,COc1ccc(-c2cc(C(=O)N(C)Cc3ccccc3)c3ccccc3n2)cc1,active: 10 µM
18,COc1cc2c(cc1NC(=O)CN1CCN(S(=O)(=O)c3ccc(C)cc3)CC1)oc1ccccc12,"inconclusive: 2.82 µM [inhibitor, full curve, poor fit]"
19,CN1CCC=C(C(=O)N2c3ccccc3Sc3ccc(Cl)cc32)C1,"inconclusive: 35.5 µM [inhibitor, single point]"
20,CC(=O)c1ccc(N(CC(=O)NCc2ccc3c(c2)OCO3)C(=O)c2csnn2)cc1,"inconclusive: 3.16 µM [activator, single point]"
